Source: PubChem BioAssay AID1259254 (NCATS, 2017)
In all, the deposit lists about 59,000 reagents; below is a random part of them. About 1,550 of them (2.6%) were called active. 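G2 share is only a proxy for re-replication; each gene was hit by three separate siRNAs, and active genes were retested.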 The numbers tell different reagents against one gene apart. Further read-outs or replicates are left out here. Reagent sequences are not shown. The record does not give: the amount of reagent.

Screen: 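Gene knock-downs that lead to re-replication, shown by excess G2 DNA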 (primary screen)
System: human HCT116 colorectal cancer cells
Knock-down reagent: single siRNA against human genes
Time to read-out: 3 days
Detection: 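Imaged Hoechst DNA stain sorts each cell into a cycle phase by DNA amount; per plate, G2 fraction set to 0% for non-targeting and 100% for GMNN siRNA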
Reading the numbers: G2 robust z-score and G2 cells, % of GMNN control: higher = more G2 cells, more excess DNA replication
Rule for the call: 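An siRNA counts as active if its G2 robust z-score lies at least 5 MADs above the screen median; here such calls match roughly 38% of GMNN control or more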

{"Target gene": "ATM", "reagent": 1, "G2 robust z-score": -0.208, "G2 cells, % of GMNN control": 1.5, "call": "inactive"}
{"Target gene": "ATM", "reagent": 2, "G2 robust z-score": -0.631, "G2 cells, % of GMNN control": -1.47, "call": "inactive"}
{"Target gene": "ATM", "reagent": 3, "G2 robust z-score": -0.957, "G2 cells, % of GMNN control": -3.77, "call": "inactive"}
{"Target gene": "TRADD", "reagent": 1, "G2 robust z-score": 1.08, "G2 cells, % of GMNN control": 10.6, "call": "inactive"}
{"Target gene": "TRADD", "reagent": 2, "G2 robust z-score": -0.257, "G2 cells, % of GMNN control": 1.16, "call": "inactive"}
{"Target gene": "TRADD", "reagent": 3, "G2 robust z-score": -0.747, "G2 cells, % of GMNN control": -2.29, "call": "inactive"}
{"Target gene": "USE1", "reagent": 1, "G2 robust z-score": 0.264, "G2 cells, % of GMNN control": 4.82, "call": "inactive"}
{"Target gene": "USE1", "reagent": 2, "G2 robust z-score": -0.996, "G2 cells, % of GMNN control": -4.04, "call": "inactive"}
{"Target gene": "USE1", "reagent": 3, "G2 robust z-score": -0.0928, "G2 cells, % of GMNN control": 2.31, "call": "inactive"}
{"Target gene": "NKX2-5", "reagent": 1, "G2 robust z-score": 6.92, "G2 cells, % of GMNN control": 51.7, "call": "active"}
{"Target gene": "NKX2-5", "reagent": 2, "G2 robust z-score": 0.0538, "G2 cells, % of GMNN control": 3.35, "call": "inactive"}
{"Target gene": "NKX2-5", "reagent": 3, "G2 robust z-score": 0.503, "G2 cells, % of GMNN control": 6.51, "call": "inactive"}
{"Target gene": "MYPOP", "reagent": 1, "G2 robust z-score": -0.299, "G2 cells, % of GMNN control": 0.862, "call": "inactive"}
{"Target gene": "MYPOP", "reagent": 2, "G2 robust z-score": 0.0851, "G2 cells, % of GMNN control": 3.57, "call": "inactive"}
{"Target gene": "MYPOP", "reagent": 3, "G2 robust z-score": -1.2, "G2 cells, % of GMNN control": -5.47, "call": "inactive"}
{"Target gene": "SFXN2", "reagent": 1, "G2 robust z-score": 2.05, "G2 cells, % of GMNN control": 17.4, "call": "inactive"}
{"Target gene": "SFXN2", "reagent": 2, "G2 robust z-score": -0.461, "G2 cells, % of GMNN control": -0.279, "call": "inactive"}
{"Target gene": "SFXN2", "reagent": 3, "G2 robust z-score": -0.0448, "G2 cells, % of GMNN control": 2.65, "call": "inactive"}
{"Target gene": "SS18L2", "reagent": 1, "G2 robust z-score": 0.545, "G2 cells, % of GMNN control": 6.8, "call": "inactive"}
{"Target gene": "SS18L2", "reagent": 2, "G2 robust z-score": -0.251, "G2 cells, % of GMNN control": 1.2, "call": "inactive"}
{"Target gene": "SS18L2", "reagent": 3, "G2 robust z-score": -0.734, "G2 cells, % of GMNN control": -2.2, "call": "inactive"}
{"Target gene": "YRDC", "reagent": 1, "G2 robust z-score": -0.185, "G2 cells, % of GMNN control": 1.66, "call": "inactive"}
{"Target gene": "YRDC", "reagent": 2, "G2 robust z-score": 0.856, "G2 cells, % of GMNN control": 8.99, "call": "inactive"}
{"Target gene": "YRDC", "reagent": 3, "G2 robust z-score": -0.939, "G2 cells, % of GMNN control": -3.64, "call": "inactive"}

Records above whose target name starts with A or a:
{"Target gene": "ATM", "reagent": 1, "G2 robust z-score": -0.208, "G2 cells, % of GMNN control": 1.5, "call": "inactive"}
{"Target gene": "ATM", "reagent": 2, "G2 robust z-score": -0.631, "G2 cells, % of GMNN control": -1.47, "call": "inactive"}
{"Target gene": "ATM", "reagent": 3, "G2 robust z-score": -0.957, "G2 cells, % of GMNN control": -3.77, "call": "inactive"}
